Data taken from publication PMC6166128.
Numbering of substitutions follows the chain as printed. Results are given in words; binding and its absence hold for the method and conditions named. Binding seen in cells or lysates may run through a third protein. Tags and fused reporters may be left off the sequences shown.

Sequences of proteins named here, by UniProt entry; tags and fusion partners are left off. A change or cut given only in a name is not applied to a line headed by its entry.
UniProt P32558: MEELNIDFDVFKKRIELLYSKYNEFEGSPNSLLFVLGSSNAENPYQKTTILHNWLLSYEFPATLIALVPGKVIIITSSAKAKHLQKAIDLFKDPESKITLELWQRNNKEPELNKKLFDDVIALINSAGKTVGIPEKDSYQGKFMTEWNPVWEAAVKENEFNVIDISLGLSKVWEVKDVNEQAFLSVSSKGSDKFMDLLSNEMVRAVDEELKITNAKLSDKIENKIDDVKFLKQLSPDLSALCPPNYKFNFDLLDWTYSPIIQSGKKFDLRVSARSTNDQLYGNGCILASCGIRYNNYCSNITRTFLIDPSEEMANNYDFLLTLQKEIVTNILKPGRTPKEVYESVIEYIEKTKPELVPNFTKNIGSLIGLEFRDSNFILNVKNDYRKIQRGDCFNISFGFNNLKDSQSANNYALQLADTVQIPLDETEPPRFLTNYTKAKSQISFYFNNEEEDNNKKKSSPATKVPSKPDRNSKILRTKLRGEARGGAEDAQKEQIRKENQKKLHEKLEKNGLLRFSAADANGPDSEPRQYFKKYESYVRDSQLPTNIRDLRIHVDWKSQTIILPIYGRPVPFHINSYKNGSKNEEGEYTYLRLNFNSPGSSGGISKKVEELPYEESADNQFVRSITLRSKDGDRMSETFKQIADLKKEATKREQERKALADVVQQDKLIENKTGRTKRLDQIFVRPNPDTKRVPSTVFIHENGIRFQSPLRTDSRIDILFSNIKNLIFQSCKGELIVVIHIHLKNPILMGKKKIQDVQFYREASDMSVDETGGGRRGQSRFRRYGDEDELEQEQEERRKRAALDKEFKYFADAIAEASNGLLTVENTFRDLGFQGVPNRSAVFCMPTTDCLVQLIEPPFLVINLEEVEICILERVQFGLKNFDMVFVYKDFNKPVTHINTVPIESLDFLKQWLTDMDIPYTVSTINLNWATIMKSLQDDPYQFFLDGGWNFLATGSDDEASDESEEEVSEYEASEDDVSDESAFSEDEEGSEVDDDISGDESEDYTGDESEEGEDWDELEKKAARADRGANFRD

Columns and labels:
[1] = target: T1, Pol1NT-2A (Pol1 1-351 with F58 and Y67 mutated, fused to Protein A) (S. cerevisiae) (UniProt P13382); assay: co-IP; Protein A-tagged tails isolated on IgG-coated magnetic beads from yeast cell extracts after DNase treatment (Universal nuclease 1,600 U/ml, 30 min, 4°C) to release histone complexes from chromatin; 100 mM Hepes-KOH pH 7.9, 100 mM KOAc; immunoblot; also in tel1∆ cells (Fig EV4B)
T1 sequence: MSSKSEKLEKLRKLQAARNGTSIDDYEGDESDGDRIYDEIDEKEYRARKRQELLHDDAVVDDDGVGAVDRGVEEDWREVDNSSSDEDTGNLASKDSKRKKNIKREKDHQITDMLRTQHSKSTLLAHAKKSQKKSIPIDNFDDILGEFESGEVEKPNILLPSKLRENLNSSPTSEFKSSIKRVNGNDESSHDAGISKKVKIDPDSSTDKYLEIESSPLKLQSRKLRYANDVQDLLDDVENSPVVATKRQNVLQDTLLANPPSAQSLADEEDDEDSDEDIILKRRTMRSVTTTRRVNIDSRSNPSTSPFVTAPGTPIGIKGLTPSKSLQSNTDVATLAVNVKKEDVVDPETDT

[2] = target: T2, Pol1NT-2A2 (Pol1 1-351 with F58A and D62A, fused to Protein A) (S. cerevisiae) (UniProt P13382); assay: as above
T2 sequence: T1 sequence with D62A, A67Y

With “FACT (histone chaperone; Spt16 and Pob3), budding yeast (from UniProt P32558 1-1035; Q04636 1-552) (complex)” the binding [1] was “no binding” and the binding [2] was “no binding”.
